# Reference: patent US20210284747A1
# The chains behind the UniProt entries cited, without tags or fusion partners.
# UniProt O43557: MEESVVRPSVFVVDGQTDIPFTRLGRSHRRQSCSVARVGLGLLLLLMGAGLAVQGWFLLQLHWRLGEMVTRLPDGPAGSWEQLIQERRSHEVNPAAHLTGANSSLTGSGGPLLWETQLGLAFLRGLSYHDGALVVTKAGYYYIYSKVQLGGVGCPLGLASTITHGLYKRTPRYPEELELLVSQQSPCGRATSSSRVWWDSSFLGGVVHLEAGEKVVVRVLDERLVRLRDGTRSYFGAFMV
# Positions count from the first letter of the chain named. Results are given in words; binding and its absence hold for the method and conditions named. Some binding calls cover weakened binding; strength is not graded here.
# B1: 2B11 chimeric IgG4 mAb (antibody, V domains shown)
# VH: EVQLVESGAELVRPGVSVKISCKGSGYTFTDYAIHWVKQSHAKSLEWIGVISTYYGDASYNQKFKGKATMTVDKSSSTAYMELARLTSEDSAIYYCARSRGEYGNYDAMDYWGQGTSVTVSS
# VL: DIVLTQSPASLAVSLGQRATISCRASESVDSYGNSFMHWYQQKPGQPPKLLIYRASNLESGIPARFSGSGSRTDFTLTINPVEADDVATYYCQQSNEDPYTFGGGTKLEIK
# B2: 3C10 chimeric IgG4 mAb (antibody, V domains shown)
# VH: EVQLQQSGAELVRPGASVTLSCKASDYTFTDSEIHWVKQTPVHGLEWIGEIDPETGGTAYNQKFKGKATLTADKSSSTAYMELRSLTSEDSAVYYCSRETDYFFDYWGQGTTLTVSS
# VL: DVVMTQTPAIMSASPGEKVTMTCSASSSVSYMYWYQQKPGSSPRLLIYDTSNLASGVPVRFSGSGSGTSYSLTISRMEAEDAATYYCQQWSSYPLTFGAGTKLELK
# B3: 3A07 chimeric IgG4 mAb (antibody, V domains shown)
# VH: B2 VH with E1Q, S17P
# VL: B2 VL with D1E, V2N, M4L, T7S, K38R, A99S, L105I
# B4: 3D12 chimeric IgG4 mAb (antibody, V domains shown)
# VH: B2 VH with E1Q, S7P
# VL: DIQMTQSPASLSASVGETVTITCGASENIYGALNWYQRKQGKSPQLLIYGATNLADGMSSRFSGSGSGRQYSLKISSLHPDDVATYYCQNVLSTPWTFGGGTKLEIK
# B5: 3B04 chimeric IgG4 mAb (antibody, V domains shown)
# VH: B2 VH with E1Q, S7P, D26G, S32Y, I34M, G57D, N61S, L83F
# VL: B4 VL with S7T, V83F, S93T
# Molecular target: Human LIGHT stably expressed on EL4 cells (EL4-LIGHT) (human) (UniProt O43557)
# Test: flow cytometry, EL4-LIGHT cells
row,binding,Binder
1,binds,B1
2,binds,B2
3,binds,B3
4,binds,B4
5,binds,B5

# Molecular target: Native LIGHT on stimulated human donor blood cells (human) (UniProt O43557)
# Test: flow cytometry, stimulated CD8 T cells
row,binding,Binder
1,binds,B1
2,binds,B2
3,binds,B3
4,binds,B4
5,binds,B5

# Molecular target: Human LIGHT stably expressed on EL4 cells (EL4-LIGHT) (human) (UniProt O43557)
# Test: flow cytometry on EL4-LIGHT cells
row,binding,Binder
1,binds,B4
2,binds,B5

# Molecular target: Native LIGHT on stimulated human donor blood cells (human) (UniProt O43557)
# Test: flow cytometry on anti-CD3/anti-CD28 stimulated human donor CD8 T cells, APC signal
row,binding,Binder
1,binds,B1
2,binds,B2
3,binds,B3
4,binds,B4
5,binds,B5

# Molecular target: Human LIGHT stably expressed on EL4 cells (EL4-LIGHT) (human) (UniProt O43557)
# Test: flow cytometry competition on EL4-LIGHT cells; blocked ligand DcR3-Fc-AF647 0.8 ug/ml
row,binding,Binder
1,binds,B1
2,binds,B4
3,binds,B5

# Molecular target: Native LIGHT on stimulated human donor blood cells (human) (UniProt O43557)
# Test: flow cytometry, APC-labelled mAbs on stimulated donor cells; also CD4 cells, neutrophils, monocytes, macrophages
row,binding,Binder
1,binds,B1
2,binds,B2
3,binds,B3
4,binds,B4
5,binds,B5

# Molecular target: Human LIGHT stably expressed on EL4 cells (EL4-LIGHT) (human) (UniProt O43557)
# Test: flow cytometry on EL4-LIGHT cells, 40 min 4 C, Alexa Fluor 647 goat anti-human IgG F(ab')2 specific detection
row,binding,Binder
1,binds,B2
2,binds,B3
3,binds,B5

# Molecular target: Human LIGHT stably expressed on EL4 cells (EL4-LIGHT) (human) (UniProt O43557)
# Test: flow cytometry on EL4-LIGHT cells, 40 min 4 C, Alexa Fluor 647 goat anti-human IgG F(ab')2 specific detection [cont.]
row,binding,Binder
1,binds,B1
2,binds,B4
